Measurements reported in PubChem BioAssay AID504804 (Drosophila RNAi Screening Center, 2011).

Assay: 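dsRNAs that improve Kc cell survival under doxorubicin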 (primary screen)
System: Drosophila Kc cells
Reagents: long dsRNA against Drosophila genes, 0.5 µg dsRNA per well
Timing: 96 h (48 h knock-down, then 48 h drug)
Conditions: doxorubicin 5 µg/ml for 48 h, added 48 h after dsRNA
Read-out: 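Viability measured as cellular ATP by luminescence after 48 h knock-down then 48 h doxorubicin at 5 µg/ml; unnormalised plate counts for each replicate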
Reading the numbers: raw ATP luminescence: higher = more viable cells, protection from doxorubicin
Hit rule: 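z-score of 2 or more over plate mean in both duplicates, retained only when retests and separate dsRNAs confirm the protection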
The deposit covers about 19,000 reagents; below is an unselected part of those that have a named target and a result. In the full data, 47 (0.25%) got an active call. 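Signals are raw, not normalised; exact z-scores behind calls not deposited; actives needed confirmation, so some wells reaching 2 SD are inactive.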 A plus sign joins genes that one reagent is predicted to hit. No sequences are given here.

no.	Target gene	amplicon	raw ATP luminescence, replicate 1	raw ATP luminescence, replicate 2	Outcome
1	CG7460 (GeneID 39973)	DRSC10850	52113	39307	inactive
2	Cpr76Bc (GeneID 40122)	DRSC11062	72993	61693	inactive
3	CG11791 (GeneID 43000)	DRSC14391	44983	38263	inactive
4	Mekk1 (GeneID 42253)	DRSC16302	65680	58860	inactive
5	Mekk1 (GeneID 42253)	DRSC16303	50760	57660	inactive
6	Asator (GeneID 43794)	DRSC17136	56740	43370	inactive
7	AANATL7 (GeneID 31236)	DRSC18616	54630	44460	inactive
8	fred (GeneID 33613)	DRSC00349	26430	36290	inactive
9	fred (GeneID 33613)	DRSC00599	28953	25260	inactive
10	fred (GeneID 33613)	DRSC00601	27650	26783	inactive
11	fred (GeneID 33613)	DRSC00602	25557	30873	inactive
12	rod (GeneID 43719)	DRSC17047	48740	52470	inactive
13	Fsn (GeneID 36460)	DRSC06875	67570	55890	inactive
14	CG31928 (GeneID 326175)	DRSC00293	97133	68490	inactive
15	VAChT + ChAT	DRSC13312	3.07e5	2.71e5	inactive
16	mts (GeneID 45959)	DRSC03574	54137	44537	inactive
17	Ctu2 (GeneID 35234)	DRSC02024	77210	59563	inactive
18	CG15482 (GeneID 34717)	DRSC02492	49720	56603	inactive
19	Cpr78Cb (GeneID 40353)	DRSC11847	53533	45853	inactive
20	ap (GeneID 35509)	DRSC04917	78570	61663	inactive
21	CG12307 (GeneID 34584)	DRSC02159	46560	72423	inactive
22	Rheb (GeneID 117332)	DRSC12148	56713	25957	inactive
23	Nup50 (GeneID 35784)	DRSC06827	76623	57413	inactive
24	CG14929 + CG4970 + CG14930	DRSC02412	45007	88017	inactive
25	CG7514 (GeneID 38571)	DRSC08597	80433	99017	inactive
26	CG17350 (GeneID 35210)	DRSC02611	50413	48507	inactive
27	TBC1d7 + mRpS24	DRSC14611	87980	76380	inactive

Reformatted: results already given.
Ctu2 (GeneID 35234) [DRSC02024]
- raw ATP luminescence, replicate 1: 77210
- raw ATP luminescence, replicate 2: 59563
- Outcome: inactive

CG15482 (GeneID 34717) [DRSC02492]
- raw ATP luminescence, replicate 1: 49720
- raw ATP luminescence, replicate 2: 56603
- Outcome: inactive

Cpr78Cb (GeneID 40353) [DRSC11847]
- raw ATP luminescence, replicate 1: 53533
- raw ATP luminescence, replicate 2: 45853
- Outcome: inactive

ap (GeneID 35509) [DRSC04917]
- raw ATP luminescence, replicate 1: 78570
- raw ATP luminescence, replicate 2: 61663
- Outcome: inactive

CG12307 (GeneID 34584) [DRSC02159]
- raw ATP luminescence, replicate 1: 46560
- raw ATP luminescence, replicate 2: 72423
- Outcome: inactive

Rheb (GeneID 117332) [DRSC12148]
- raw ATP luminescence, replicate 1: 56713
- raw ATP luminescence, replicate 2: 25957
- Outcome: inactive

More entries follow:
no.	Target gene	amplicon	raw ATP luminescence, replicate 1	raw ATP luminescence, replicate 2	Outcome
28	CG15578 (GeneID 50379)	DRSC18066	35000	54560	inactive
29	CG17567 (retired record) (GeneID 50468)	DRSC02627	70253	62117	inactive
30	CG12520 (GeneID 39466)	DRSC09892	74903	81427	inactive
31	Vmat (GeneID 3346192)	DRSC06961	73010	62267	inactive
32	CG1304 (GeneID 33074)	DRSC20494	2.88e5	3.37e5	inactive
33	Spn43Aa (GeneID 45041)	DRSC06117	58277	54373	inactive
34	cyp33 (GeneID 36984)	DRSC07600	74770	37863	inactive
35	LManIV (GeneID 34204)	DRSC03222	43237	65490	inactive
36	Culd (GeneID 38946)	DRSC10262	42797	50660	inactive
37	trpl (GeneID 36003)	DRSC06728	46983	74123	inactive
38	trpl (GeneID 36003)	DRSC06729	45663	75710	inactive
39	CG30447 (GeneID 246621)	DRSC05820	1.82e5	1.51e5	inactive
40	Or67d (GeneID 39191)	DRSC10158	72137	55470	inactive
41	CG14423 (GeneID 31287)	DRSC17920	57370	47720	inactive
42	nAChRalpha5 (GeneID 34826)	DRSC01360	2.41e5	2.67e5	inactive
43	nAChRalpha5 (GeneID 34826)	DRSC01946	23153	60117	inactive
44	nAChRalpha5 (GeneID 34826)	DRSC01947	53427	55987	inactive
45	rpr (GeneID 40015)	DRSC11390	62377	58807	inactive
46	CG5321 (GeneID 32399)	DRSC19940	4.12e5	3.47e5	inactive
47	bw (GeneID 37724)	DRSC04005	96967	1.01e5	inactive
48	bw (GeneID 37724)	DRSC04677	66627	59937	inactive
49	Gpdh2 (GeneID 37672)	DRSC04346	42173	50127	inactive
50	Cyp6d4 (GeneID 42682)	DRSC16633	30803	39630	inactive
51	CG34175 (GeneID 5740264)	DRSC00424	27277	29853	inactive
52	ppk21 (GeneID 43485)	DRSC14466	67290	46560	inactive
53	CG10969 (GeneID 39451)	DRSC09811	87370	73767	inactive
54	GILT2 (GeneID 42788)	DRSC14196	34117	29893	inactive
55	CG12259 (GeneID 43347)	DRSC14486	51800	44120	inactive
56	Mst27D (GeneID 319019)	DRSC00967	2.86e5	2.66e5	inactive
57	Grl62a (GeneID 7354373)	DRSC07963	1.74e5	1.67e5	inactive
